Taken from: PubChem BioAssay AID686937 (Drosophila RNAi Screening Center, 2013)
In all, the deposit lists about 23,000 reagents; shown is a random part of those with a known target gene and a result. 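Reduced-secretion tags in replicate 1 do not always agree with the z-scores; no criterion for assigning the tags was given.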 Names joined by + are all predicted targets of the reagent. Further read-outs or replicates are left out here. The record does not give: the amount of reagent.

Assay: 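Genes whose loss weakens secretory pathway function in fly cells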 (primary screen)
Cells: Drosophila S2 cells expressing secreted horseradish peroxidase
Reagent: long dsRNA against Drosophila genes
Time to read-out: about 5.5 days (5 days dsRNA, then 12 h reporter induction)
Treatment: reporter expression induced after 5 days of dsRNA, read 12 h later; inducer not stated
Detection: 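After 5 days of dsRNA and 12 h of reporter induction, medium peroxidase read by chemiluminescence and scored as per-plate z-score; higher values mean more reporter released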
Scale: z-score: higher = more reporter secreted into medium

The first 4 entries, to show the layout:
Ctr1B + Poxm [DRSC16245] — z-score, replicate 1 = 0.06
CG1544 [DRSC15036] — z-score, replicate 1 = 0.12
CG13248 [DRSC11696] — z-score, replicate 1 = 0.43
CG34236 [DRSC05435] — z-score, replicate 1 = -0.06

Main list, from the first entry:
Ctr1B + Poxm [DRSC16245] — z-score, replicate 1 = 0.06
CG1544 [DRSC15036] — z-score, replicate 1 = 0.12
CG13248 [DRSC11696] — z-score, replicate 1 = 0.43
CG34236 [DRSC05435] — z-score, replicate 1 = -0.06
PheRS-m (Phenylalanyl-tRNA synthetase, mitochondrial) [DRSC05915] — z-score, replicate 1 = 0.47
wry (weary) [DRSC00352] — z-score, replicate 1 = 0.4
wry (weary) [DRSC00456] — z-score, replicate 1 = -9.07; phenotype, replicate 1 = reduced secretion
wry (weary) [DRSC22414] — z-score, replicate 1 = -0.29
Qsox1 (Quiescin sulfhydryl oxidase 1) [DRSC06878] — z-score, replicate 1 = -0.13
Fbl6 (F-box and leucine-rich repeat protein 6) [DRSC06335] — z-score, replicate 1 = 0.3
CG34342 [DRSC09756] — z-score, replicate 1 = 0.72
CG34342 [DRSC22515] — z-score, replicate 1 = 0.53
GrlHz (Gustatory receptor-like Holozoa) [DRSC04424] — z-score, replicate 1 = 0.15
Elk (Eag-like K[+] channel) [DRSC07608] — z-score, replicate 1 = 0.17
m (miniature) [DRSC20181] — z-score, replicate 1 = 0.44
Bro [DRSC08149] — z-score, replicate 1 = 0.17
CG31922 [DRSC21703] — z-score, replicate 1 = -0.07
CG31091 [DRSC15933] — z-score, replicate 1 = 0.24
CG42531 [DRSC05318] — z-score, replicate 1 = -0.4
und (uninitiated) [DRSC03629] — z-score, replicate 1 = 0.48
CG17928 [DRSC02644] — z-score, replicate 1 = -0.09
CG31199 [DRSC15284] — z-score, replicate 1 = 0.27
Sp7 (Serine protease 7) [DRSC15461] — z-score, replicate 1 = 0.07
CG10621 [DRSC02078] — z-score, replicate 1 = 0.17
Had1 (beta Hydroxy acid dehydrogenase 1) [DRSC20216] — z-score, replicate 1 = 0.41
CG5418 [DRSC02857] — z-score, replicate 1 = 0.76
Sptr (Sepiapterin reductase) [DRSC18719] — z-score, replicate 1 = 0.35
CG4267 [DRSC00102] — z-score, replicate 1 = -0.61
CG4267 [DRSC00647] — z-score, replicate 1 = 0.26
trr (trithorax-related) [DRSC18845] — z-score, replicate 1 = 0.52
MtnA (Metallothionein A) [DRSC21588] — z-score, replicate 1 = -0.05
CG13634 [DRSC14635] — z-score, replicate 1 = 0.26
Ptpmeg (Protein tyrosine phosphatase Meg) [DRSC08684] — z-score, replicate 1 = 0.1
CG11626 [DRSC14336] — z-score, replicate 1 = 0.31
Got2 (Glutamate oxaloacetate transaminase 2) [DRSC00643] — z-score, replicate 1 = 0.11
Sirup (Starvation-upregulated protein) [DRSC03031] — z-score, replicate 1 = 0.19
CG30291 [DRSC03842] — z-score, replicate 1 = -0.27
CG43085 [DRSC09497] — z-score, replicate 1 = 0.07
CG17778 [DRSC18504] — z-score, replicate 1 = -0.9
CG12637 [DRSC17845] — z-score, replicate 1 = 0.15
